The target of test [1] is T1, FLAG-tagged BGLF3 (wild type) (Epstein-Barr virus) (UniProt P03220).
T1 sequence: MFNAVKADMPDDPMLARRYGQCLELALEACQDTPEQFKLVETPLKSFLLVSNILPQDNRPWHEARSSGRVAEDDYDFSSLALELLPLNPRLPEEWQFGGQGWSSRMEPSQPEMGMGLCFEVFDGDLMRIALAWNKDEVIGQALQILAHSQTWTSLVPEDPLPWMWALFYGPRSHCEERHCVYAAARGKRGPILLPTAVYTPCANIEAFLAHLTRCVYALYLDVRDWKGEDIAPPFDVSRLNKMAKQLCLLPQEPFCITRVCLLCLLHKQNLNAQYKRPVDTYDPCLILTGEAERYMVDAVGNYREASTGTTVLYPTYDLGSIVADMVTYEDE
Kind of test: co-IP; FLAG-tagged BGLF3 or BGLF3(T42A) as bait with BFRF2 and BVLF1 co-expressed together in 2089 cells; anti-FLAG M2 agarose, 2 h, 4 C; eluted with 3X FLAG peptide; anti-Myc blot.

Test [2] addresses T1, FLAG-tagged BGLF3 (wild type) (Epstein-Barr virus). The experiment in a line: co-IP; FLAG-tagged BGLF3 or BGLF3(T42A) as bait with one partner (BcRF1, BFRF2 or BVLF1) co-expressed in 2089 cells; anti-FLAG M2 agarose, 2 h, 4 C; lysis buffer 20 mM Tris-HCl pH 7.5, 150 mM NaCl, 1 mM EDTA, 1 mM EGTA, 1% Triton; eluted with 3X FLAG peptide; anti-Myc blot; ZEBRA co-transfected in the BcRF1 experiment.

Test [3] addresses FLAG-tagged BVLF1 (Epstein-Barr virus). Kind of test: co-IP; FLAG-tagged BVLF1 as bait with BFRF2 together with BGLF3 or BGLF3(T42A) in 2089 cells; anti-FLAG M2 agarose; anti-Myc blot; quantitation from two independent experiments.
Test [4] has the same target. The experiment in a line: co-IP; FLAG-tagged BVLF1 as bait with BFRF2 alone (no BGLF3 transfected) in 2089 cells; anti-FLAG M2 agarose; anti-Myc blot.

These are yes or no findings as the source states them, for the method shown. In cells and extracts the contact can be indirect. Binding calls can cover weak binding; strength is not graded here. For some assays here: Where a sequence is shown, tags or fusion partners need not be part of it.

As for “BVLF1 (prey, detected by anti-Myc) (Epstein-Barr virus)”, the binding result in test [1] and in test [2] was “binds” throughout. As to “BcRF1 (viral TATA box binding protein) (Epstein-Barr virus)”, in test [2], the binding result is listed as “binds”.

B1: BGLF3 (wild type; prey of the FLAG-BVLF1 co-immunoprecipitation) (protein, UniProt P03220 1-332)
chain: T1 sequence
Turning to B1, in test [3], the binding entry is “binds”.

B2: BFRF2 (protein, UniProt P14347 1-591)
chain: MALFLARHTLSGTGAGCHGRGPAPDVSEVDLTLQALGERGFSRLLDLGLACLDLSYVEMREFVVWGRPPASEAAVASTPGSLFRSHSSAYWLSEVERPGGLVRWARSQTSPSSLTLAPHLGPSLLSLSVVTGGGCGAVAFCNAFFLAYFLVVRSVFPAFSDRIAAWICDRSPFCENTRAVARGYRGLVKRFLAFVFERSSYDPPLLRQNSRPVERCFAIKNYVPGLDSQSCVTVPSFSRWAQSHASELDPREIRDRVTPATAPSFVADHASALLASLQKKASDTPCGNPIQWMWYRLLVNSCLRSAHCLLPIPAVSEGGRKTGGGVGEELVGAGGPCLSRDVFVAIVSRNVLSCLLNVPAAGPRAYKCFRSHASRPVSGPDYPPLAVFCMDCGYCLNFGKQTGVGGRLNSFRPTLQFYPRDQKEKHVLTCHASGRVYCSNCGSAAVGCQRLAEPPSARSGWRPRIRAVLPHNAAYELDRGSRLLDAIIPCLGPDRTCMRPVVLRGVTVRQLLYLTLRTEARAVCSICQQRQAPEDARDEPHLFSSCLEVELPPGERCAGCRLYQTRYGTPAAQAHPPGEAGGGFSRQSPAS
In the case of B2, the binding result in test [4] was “binds weakly”.

Values taken from publication PMC6713331.
